# Data as given in PubChem BioAssay AID743454 (Peter MacCallum Cancer Centre, 2014).
# Purpose: 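Knock-downs lowering viability or raising caspase 3/7 activity in vorinostat-treated resistant cells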 (primary screen)
# System: human HCT116-VR colon cancer cells, selected for vorinostat resistance
# Reagent: siRNA pool against human genes, 40 nM siRNA pool
# Time to read-out: vorinostat for 24 h, read-out about 72 h after transfection
# Conditions: vorinostat at 2.5 µM final
# Measured: 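Cell viability by CellTiter-Fluor and caspase 3/7 activity by luminescence, each scaled to mock wells per plate, duplicates averaged, then robust z-scored over all plates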
# Reading the numbers: viability robust z-score: higher = more viable cells than screen typical; caspase robust z-score: higher = more caspase 3/7 activity than screen typical
# Call rule: 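a knock-down is a hit when classed RV1 or RV2 for lowered viability, or CA1 or CA2 for caspase activation; those lethal without drug were dropped; hits were retested singly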
# The whole screen tested about 18,000 reagents; shown is a random part of them. Over the whole deposit, 450 (2.5%) got an active call. 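Single biological run; no consistent viability z cut-off exists, so the class columns, not z-scores, define the calls.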 The numbers tell different reagents against one gene apart.
target,reagent,viability hit class,caspase hit class,viability robust z-score,caspase robust z-score,activity call
ZNF57 (GeneID 126295),1,no change,no change,-0.57,-0.05,inactive
PLEKHG7 (GeneID 440107),1,no change,no change,0.02,0.34,inactive
PLEKHG7 (GeneID 440107),2,no change,no change,0.56,-0.94,inactive
CCDC50 (GeneID 152137),1,no change,no change,-0.46,-0.94,inactive
HCP5 (GeneID 10866),1,no change,no change,-1.23,0.26,inactive
USP16 (GeneID 10600),1,no change,no change,-0.7,0.31,inactive
SULT2A1 (GeneID 6822),1,no change,no change,1.52,-0.57,inactive
TIAM2 (GeneID 26230),1,no change,no change,-1.77,1.05,inactive
MCTS1 (GeneID 28985),1,no change,no change,0.84,-0.04,inactive
TIGAR (GeneID 57103),1,no change,no change,1.71,-0.73,inactive
POLR1H (GeneID 30834),1,no change,no change,-0.64,-0.04,inactive
GNAL (GeneID 2774),1,no change,no change,-0.16,2.15,inactive
L1CAM-AS1 (GeneID 100996465),1,no change,no change,-0.72,0.14,inactive
CASP14 (GeneID 23581),1,no change,no change,0.16,1.78,inactive
LLPH (GeneID 84298),1,no change,no change,-1.29,-1.55,inactive
CCM2L (GeneID 140706),1,no change,no change,-1.1,0.01,inactive
CLDN12 (GeneID 9069),1,no change,no change,-0.38,-0.34,inactive
SOX9 (GeneID 6662),1,no change,no change,-1.52,1.54,inactive
ATP6V0D2 (GeneID 245972),1,no change,no change,-0.52,1.31,inactive
RAET1L (GeneID 154064),1,no change,no change,0.24,1.06,inactive
AKR1B10 (GeneID 57016),1,no change,no change,-0.3,-1.05,inactive
IRAG2 (GeneID 4033),1,no change,no change,1.15,-0.75,inactive
LPAL2 (GeneID 80350),1,no change,no change,-0.02,1.23,inactive

2 of these entries, set out differently.
AKR1B10 (GeneID 57016) — viability hit class: no change; caspase hit class: no change; viability robust z-score: -0.3; caspase robust z-score: -1.05; activity call: inactive
IRAG2 (GeneID 4033) — viability hit class: no change; caspase hit class: no change; viability robust z-score: 1.15; caspase robust z-score: -0.75; activity call: inactive
